Values quoted from earlier work as cited in patent publication US7094600B2, “Screen for sodium channel modulators” (The Research Foundation of State University of New York, priority 2003, dated 2006).

Conditions: as antiarrhythmic agent; cited from earlier work

Row | SMILES | therapeutic plasma concentration [µM]
1 | CCCCc1oc2ccccc2c1C(=O)c1cc(I)c(OCCN(CC)CC)c(I)c1 [amiodarone] | 0.77 to 3.1
2 | CCCNCC(O)COc1ccccc1C(=O)CCc1ccccc1 (centres unmarked) [propafenone] | 0.5 to 1.5
